The values below come from paper PMC11112778.

Chains of the proteins cited; added tags and fusions are not shown.
UniProt P19474: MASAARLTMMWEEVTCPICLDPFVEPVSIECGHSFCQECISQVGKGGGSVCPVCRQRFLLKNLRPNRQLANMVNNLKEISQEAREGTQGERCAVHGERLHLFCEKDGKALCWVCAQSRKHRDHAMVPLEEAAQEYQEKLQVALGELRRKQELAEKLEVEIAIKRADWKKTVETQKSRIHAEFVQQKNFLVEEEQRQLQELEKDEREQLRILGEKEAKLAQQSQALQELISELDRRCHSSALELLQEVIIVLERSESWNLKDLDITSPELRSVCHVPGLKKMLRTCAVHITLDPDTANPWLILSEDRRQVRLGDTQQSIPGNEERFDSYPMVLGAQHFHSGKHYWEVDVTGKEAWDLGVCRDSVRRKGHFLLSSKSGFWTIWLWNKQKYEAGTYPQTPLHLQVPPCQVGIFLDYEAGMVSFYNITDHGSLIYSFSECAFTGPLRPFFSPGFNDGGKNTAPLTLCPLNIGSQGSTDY

In this test the target is tripartite motif-containing protein 21 (human (endogenous in ESCC cells)) (UniProt P19474). The test is described as follows: co-IP; ESCC cell lysates (RIPA lysis buffer) incubated with NEK2 or TRIM21 antibody overnight at 4 °C; protein A/G agarose beads 4 h at 4 °C; western blotting; IgG control.

Results are given in words; binding and its absence hold for the method and conditions named. Binding seen in cells or lysates may run through a third protein. Some entries that bind do so weakly or less than the wild type.

B1: NIMA-related kinase 2 (protein, UniProt P51955 1-445)
chain: MPSRAEDYEVLYTIGTGSYGRCQKIRRKSDGKILVWKELDYGSMTEAEKQMLVSEVNLLRELKHPNIVRYYDRIIDRTNTTLYIVMEYCEGGDLASVITKGTKERQYLDEEFVLRVMTQLTLALKECHRRSDGGHTVLHRDLKPANVFLDGKQNVKLGDFGLARILNHDTSFAKTFVGTPYYMSPEQMNRMSYNEKSDIWSLGCLLYELCALMPPFTAFSQKELAGKIREGKFRRIPYRYSDELNEIITRMLNLKDYHRPSVEEILENPLIADLVADEQRRNLERRGRQLGEPEKSQDSSPVLSELKLKEIQLQERERALKAREERLEQKEQELCVRERLAEDKLARAENLLKNYSLLKERKFLSLASNPELLNLPSSVIKKKVHFSGESKENIMRSENSESQLTSKSKCKDLKKRLHAAQLRAQALSDIEKNYQLKSRQILGMR
As for B1, the binding result is listed as “binds”.
